Measured values published in PMC9859756.
These are yes or no findings as the source states them, for the method shown. Binding seen in cells or lysates may run through a third protein. Some entries that bind do so weakly or less than the wild type. Sequences can lack the tags named with a protein.

Protein sequences, listed by entry. Tags and fused reporters are not part of them.
UniProt Q9QZL0: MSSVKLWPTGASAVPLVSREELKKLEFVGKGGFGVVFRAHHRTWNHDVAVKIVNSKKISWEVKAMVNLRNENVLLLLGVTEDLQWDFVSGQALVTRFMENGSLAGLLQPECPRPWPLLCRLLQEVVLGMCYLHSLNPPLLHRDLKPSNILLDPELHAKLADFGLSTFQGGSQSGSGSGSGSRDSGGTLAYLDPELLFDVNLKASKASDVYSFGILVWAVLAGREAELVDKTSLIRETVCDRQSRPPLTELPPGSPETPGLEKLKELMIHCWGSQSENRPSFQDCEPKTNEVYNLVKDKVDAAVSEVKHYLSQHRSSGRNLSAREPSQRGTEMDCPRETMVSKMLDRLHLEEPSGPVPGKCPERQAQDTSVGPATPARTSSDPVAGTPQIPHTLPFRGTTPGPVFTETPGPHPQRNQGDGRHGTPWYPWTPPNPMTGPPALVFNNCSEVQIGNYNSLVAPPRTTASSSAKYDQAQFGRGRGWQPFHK

Legend:
[1] = molecular target: T1, V5-tagged mouse OASL2 (mouse) (UniProt Q9Z2F2); test: co-IP
T1 sequence: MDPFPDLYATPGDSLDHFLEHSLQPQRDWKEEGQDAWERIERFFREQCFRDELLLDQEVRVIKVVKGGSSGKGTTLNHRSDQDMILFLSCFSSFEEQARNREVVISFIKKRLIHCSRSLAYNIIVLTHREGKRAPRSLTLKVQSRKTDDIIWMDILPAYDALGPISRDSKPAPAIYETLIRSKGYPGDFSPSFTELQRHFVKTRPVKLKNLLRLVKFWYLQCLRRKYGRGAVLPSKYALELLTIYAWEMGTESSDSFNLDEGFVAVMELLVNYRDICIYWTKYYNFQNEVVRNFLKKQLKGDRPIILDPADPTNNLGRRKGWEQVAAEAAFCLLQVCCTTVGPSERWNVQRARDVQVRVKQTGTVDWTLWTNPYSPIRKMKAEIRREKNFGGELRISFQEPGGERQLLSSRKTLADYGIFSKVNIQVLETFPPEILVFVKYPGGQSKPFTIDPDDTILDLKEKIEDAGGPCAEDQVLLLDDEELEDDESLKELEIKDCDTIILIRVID

[2] = molecular target: T2, V5-tagged mouse OASL1 (mouse) (UniProt Q8VI94); test: co-IP
T2 sequence: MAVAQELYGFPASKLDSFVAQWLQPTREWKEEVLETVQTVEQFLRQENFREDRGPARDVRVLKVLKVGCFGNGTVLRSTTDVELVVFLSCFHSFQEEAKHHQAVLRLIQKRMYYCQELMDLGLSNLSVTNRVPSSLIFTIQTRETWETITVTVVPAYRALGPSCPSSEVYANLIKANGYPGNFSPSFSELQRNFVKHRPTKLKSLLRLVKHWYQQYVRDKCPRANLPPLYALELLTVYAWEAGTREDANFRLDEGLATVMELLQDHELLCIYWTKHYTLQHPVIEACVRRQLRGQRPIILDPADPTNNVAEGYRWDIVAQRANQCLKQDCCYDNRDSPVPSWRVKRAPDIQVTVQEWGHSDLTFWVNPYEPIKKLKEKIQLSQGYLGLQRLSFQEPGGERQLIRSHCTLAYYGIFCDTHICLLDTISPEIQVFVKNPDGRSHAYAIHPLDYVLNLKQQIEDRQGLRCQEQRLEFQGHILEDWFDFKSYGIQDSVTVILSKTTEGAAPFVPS

“HA-tagged full-length mouse RIPK3 (pcDNA3-HA-RIPK3) (from UniProt Q9QZL0 1-486)” was tested. Which binding [1] did it give?
The binding was “no binding”.

And the binding [2]?
Its binding is “binds”.
